Out of some 320,000 compounds screened, about 2,100 (0.66%) were called active. The inconclusive results got no clear call from the source; some entries with a clear call stand among them for comparison. Calls come from the whole dose curve; as a rule, active = well fitted inhibition curve with a large enough effect in the signal ratio, with a control signal flat (not every such curve was filed as active); inconclusive = small, poorly fitted or top-dose-only effect, or effect the other way, or a change in a side signal; inactive = flat fitted curve, though single readings scatter; the % refers to the signal ratio. A potency beside an inconclusive call is a rough fit, not a confirmed value.
Experiment: qHTS Assay for Lipid Storage Modulators in Drosophila S3 Cells
Details: BODIPY lipid droplet fluorescence, 18-24 h, cells fed with added oleic acid; lipid storage change, negative = inhibition: at 46.1 µM (top of the series) unless noted
Procedure, shortened: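 Laser-scanning cytometry quantifies lipid droplet accumulation (500–530 nm total intensity; droplet/cell object ratio) in oleic acid-fed (400 uM added) Drosophila S3 cells treated with a concentration series. 20 uM Triacsin C defined 100% inhibition.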
% is set by controls: 0 for no effect and ±100 for the full control effect; potency is the fitted concentration of half-maximal effect.

Potency, active:
Cc1cccc(C)c1NC(=S)NN1CCN(C)CC1 23.1 µM

Potency, inconclusive:
Cc1ccc(S(=O)(=O)N2CCCCC2)cc1C(=O)N1CCN(CCO)CC1 29.1 µM [activator, single point], Cc1ccc(SCC(=O)N2CC(C)OC(C)C2)cc1 (configuration not stated) 29.1 µM [falling, single point], Clc1ccc(CSc2nnc([C@@H]3CCCN3)o2)cc1Cl 0.291 µM [rising, partial curve, poor fit], O=C(/C=C/c1ccco1)NC(=S)Nc1cc(C(F)(F)F)ccc1N1CCOCC1 14.6 µM [activator, partial curve], CC(=O)c1ccc(NC(=O)CSc2n[nH]c(-c3cccnc3)n2)cc1 3.26 µM [falling, partial curve, poor fit], CCN(CC)C(CNC(=O)c1cc(=O)[nH]c2ccccc12)c1ccccc1Cl (configuration not stated) 5.17 µM [activator, single point], COc1ccc(NC(=O)Cc2c(SC)c3ccccc3n2Cc2ccccc2)cc1 0.184 µM [falling, full curve, poor fit], Oc1c(Br)cc(Br)cc1/C=N/N1CCN(Cc2ccccc2)CC1 23.1 µM [activator, single point], CC(=O)Nc1ccc(NC(=O)C(C)OC(=O)c2ccc(-n3cnnn3)cc2)cc1 (configuration not stated) 20.6 µM [falling, single point], CC(=O)c1c(C(=O)O)c2ccccc2[nH]c1=O 29.1 µM [falling, partial curve, poor fit], Cc1cc(C)cc(NC(=O)N2CCC(NC(=O)c3ccc(F)cc3)CC2)c1 4.11 µM [activator, partial curve, poor fit], COc1ccc(Cc2nnc(NC(=O)c3ccc(OC)cc3OC)s2)cc1 29.1 µM [falling, single point], Cc1ccc(C)c(NC(=O)[C@@H]2CCCN2S(=O)(=O)c2ccccc2F)c1 0.0058 µM [falling, full curve, poor fit], Cc1nn(CC(=O)NCCCN2CC(C)CC(C)C2)c(=O)c2cccn12 (configuration not stated) 29.1 µM [activator, single point], Cc1ccc2nc(SCC(=O)Nc3cc(C)on3)c(C)cc2c1 1.84 µM [falling, partial curve], Cc1ccc(CS(=O)(=O)CCC(=O)NCc2ccccc2Cl)cc1 29.1 µM [activator, single point], O=C1c2cccc3cc([N+](=O)[O-])cc(c23)C(=O)N1CC1CCCO1 (configuration not stated) 29.1 µM [falling, single point], N=C1c2ccccc2CN1NC(=O)c1cccc(S(=O)(=O)N2CCCCC2)c1 6.51 µM [rising, single point], CC(C)C(NS(=O)(=O)c1ccccc1F)C(=O)N1CCc2ccccc2C1 (configuration not stated) 5.17 µM [falling, single point], CC1CN(C(=O)/C=C/c2ccccc2[N+](=O)[O-])CC(C)O1 (configuration not stated) 0.461 µM [falling, single point], COc1ccc(OCC(=O)NC(=S)Nc2ccc3c4c(cccc24)CC3)cc1 13 µM [activator, partial curve], CC(C)Cn1c(-c2csc(C(C)C)c2)n[nH]c1=S 32.6 µM [falling, single point]

Lipid storage change, negative = inhibition, inactive:
O=C(NC1=NCCS1)c1ccccc1Cl 16.7%

Lipid storage change, negative = inhibition, inconclusive:
O=c1cc(O)c2sc(Nc3ccc(F)cc3)nc2[nH]1 -11.1%, O=C(CSc1nnc(CNC(=O)c2c(F)cccc2F)o1)NCc1ccco1 5.92%, COc1ccc(-n2c(CNC(=O)COc3ccccc3)n[nH]c2=S)cc1 6.57%, CCCCn1c(=O)[nH]c(=O)c2c1nc(-c1cc(Cl)c(OC)c(OC)c1)n2C -100%, COc1ccccc1CN(C)C(=O)C(NC(=O)Cc1cccc2ccccc12)C(C)C (configuration not stated) 19%, CCCCN(C(=O)c1cc(Cl)nc2ccccc12)c1c(N)n(CCCC)c(=O)[nH]c1=O 3.47%, CC(C)NC(=O)COC(=O)c1cc(F)c(F)cc1Cl -160%, CCCCCc1ccc(S(=O)(=O)NCCc2ccncc2)cc1 201%, CCn1nc(C(=O)OCC(=O)N2CC(=O)Nc3ccccc32)c2ccccc2c1=O 2.72%, COC(=O)CSc1nnc(-c2ccco2)n1-c1ccc(C)cc1 -0.373%, Cn1cc(/C=N/n2cnc3scc(-c4ccccc4)c3c2=O)c2ccccc21 -46.5%, Cc1cc(C)nc(SCc2ccc(C(=O)N/N=C/c3ccco3)cc2)n1 26.3%, COc1ccccc1NC(=O)Nc1nc(CC(=O)Nc2cccc(F)c2)cs1, COc1ccc(-c2c(C(F)(F)F)nn(C)c2NC(=O)CSCC(=O)O)cc1 -7.4%, COc1ccc(C(=O)/C=C/Nc2ccc([N+](=O)[O-])cc2C)cc1OC 33.4%, Cc1cccc(NC(=O)CN2C(=O)N/C(=C/c3ccc(C)s3)C2=O)c1 -33.3%, COc1ccccc1OCc1ccc(C(=O)N2CCN(C(=O)c3ccco3)CC2)cc1 -21.4%, NS(=O)(=O)c1cccc(NC(=O)CSc2nn(-c3ccccc3)c(=S)s2)c1 45.7%, Cn1cnnc1Sc1ccc(C(=O)OCC(=O)NC2CC2)cc1[N+](=O)[O-] -18.8%, O=C(O)/C=C/c1ccc2ccccc2n1 -9.7%, CC(NC(=O)c1ccco1)C(=O)OCC(=O)N1CCCCCC1 (configuration not stated) 11.9%, c1ccn2c(CNc3ncnc4sccc34)nnc2c1 12.7%, Cc1ccc(NC(=O)CN(C)C(=O)CCC(=O)N2CCOCC2)cc1 12.3%, CCSc1nnc(NC(=O)C2CCCCC2C(=O)OCC(F)(F)C(F)F)s1 (configuration not stated) 15%, O=C(COc1cccc2cccnc12)N/N=C1\SCC(=O)N1Cc1ccco1 10.6%, O=C(c1cnn2c(C(F)F)cc(-c3ccccc3)nc12)N1CCc2ccccc21 4.2%, Nc1ncnc(Nc2cc(Cl)cc(Cl)c2)c1[N+](=O)[O-] -11.9%, COc1ccc(-c2nnc(SCc3ccc(C(=O)O)cc3)o2)cc1OC 5.11%, CCCOP(=O)(OCCC)C1(Nc2ccc(C)cc2)CCCCC1 363%, Cc1cc(Cl)c(S(=O)(=O)NCC2CCCO2)cc1OCC(=O)NC1CCCCC1 (configuration not stated) 5.72%, CCc1cc2c(=O)c(-c3cnn(-c4ccccc4)c3)c(C)oc2cc1OCC(=O)Nc1ccc(F)c(F)c1 13.1%, CCOP(=O)(OCC)C1NC(=O)N(c2ccccc2)C1=O (configuration not stated) 13%, CCn1c(SCC(=O)NC2=NCCS2)nnc1C(C)NC(=O)c1ccc(Cl)cc1 (configuration not stated) -1.82%, CCCCCn1c(=O)c(C(=O)OCC)c(Cl)c2ccccc21 15.1%, O=C(NCCc1nc2ccccc2[nH]1)/C(=C/c1ccco1)NC(=O)c1ccccc1Br 25.6%, O=c1n(Cc2ccccc2)c2cc(Cl)cnc2n1Cc1ccccc1 57.9%, COc1ccc2cc(CCNC(=O)c3cccs3)c(=O)[nH]c2c1 22.2%, COc1cc(OC)cc(C(=O)N[C@H](C(=O)Nc2nc3ccc(S(C)(=O)=O)cc3s2)C(C)C)c1 8.57%, Cc1c(NC(=O)c2ccc(F)cc2)c(=O)n(-c2ccccc2)n1C 8.25%, COc1ccc(C(C)=O)cc1CS(=O)(=O)CC(=O)NCCc1c[nH]c2ccccc12 -3.44%, COC(=O)[C@]1(CC(C)C)N[C@H](c2ccc(-c3ccc(OC)cc3)cc2)[C@@H]2C(=O)N(C)C(=O)[C@@H]21 -78.5%, CCOC(=O)C1CCN(C(=O)c2cc3c(-c4ccc(OC)c(OC)c4)nn(C)c3s2)CC1 -26.4%, CC(=O)n1cc(/C=C2/N=C(c3ccccc3)OC2=O)c2ccccc21 -42%, Cc1nonc1NC(=O)CSc1nnc(N)s1 -100%, O=C(CSc1nnc(CNC(=O)c2ccccc2)o1)Nc1ccc2c(c1)OCCO2 8%, CCc1ccc(NC(=O)C(=O)NCC2CCCN2S(=O)(=O)c2cccs2)cc1 (configuration not stated), Cn1c(=O)oc2cc(S(=O)(=O)N3CCCC(C(=O)Nc4ccc5c(c4)OCCO5)C3)ccc21 (configuration not stated) 9.84%, Cc1ccc(OCCC(=O)Nc2ccccc2C(=O)N2CCCCC2)cc1, Nn1c(COc2ccccc2F)nnc1SCC(=O)NC1CC1, CC(Sc1nnnn1C)C(=O)Nc1ccc(Oc2ccccc2)cc1 (configuration not stated) -10.5%, CC1CCCC(NC(=O)c2cc(-c3ccncc3)nc3ccccc23)C1C (configuration not stated), Cc1ccc(C2N3CC4([N+](=O)[O-])CN2CC([N+](=O)[O-])(C3)C4(C)C)cc1 (configuration not stated) 5.7%

outcome, inactive:
Cc1ccc(C(=O)OCC(=O)N2CCOCC2)cc1 inactive [at 46.1 µM]

From PubChem BioAssay AID2685 (National Center for Advancing Translational Sciences (NCATS), 2010)
